Test results from paper PMC2936295.

Chains of the proteins cited; added tags and fusions are not shown. Lines headed by an entry give the natural chain unless they say otherwise; changes in a name come on top.
UniProt P0ACL9: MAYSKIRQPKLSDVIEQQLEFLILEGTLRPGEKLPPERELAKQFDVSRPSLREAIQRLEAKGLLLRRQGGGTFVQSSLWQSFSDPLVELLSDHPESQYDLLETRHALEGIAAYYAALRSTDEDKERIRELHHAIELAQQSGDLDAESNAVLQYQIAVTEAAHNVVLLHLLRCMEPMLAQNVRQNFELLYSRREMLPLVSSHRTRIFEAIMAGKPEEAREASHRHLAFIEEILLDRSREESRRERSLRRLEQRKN

Target: PdhR-His (Escherichia coli K-12 LJ110) (UniProt P0ACL9)
Assay: EMSA
Settings: 50 mM pyruvate, 39 pmol PdhR, 0.1 pmol probe (0.025 pmol for lipA), 6% polyacrylamide gel, recombinant protein, protein details: C-terminal Penta-His, label: 5' DY682 (strand 1), 5' DY782 (strand 2)

## GCCGAAGTCAATTGGTCTTACCAATTTCATGTCTGTG (double strand) [PdhR-binding site of pdhR-aceEF-lpd operon]
  binding result: no binding

The exact form of at least one protein or probe is not confirmed. Negatives hold for the conditions tested.
